2 substances from PMC7318079 can be followed below.

The chains behind the UniProt entries cited, without tags or fusion partners. Residues count along the entry.
UniProt Q9BZS1, residues 1-417: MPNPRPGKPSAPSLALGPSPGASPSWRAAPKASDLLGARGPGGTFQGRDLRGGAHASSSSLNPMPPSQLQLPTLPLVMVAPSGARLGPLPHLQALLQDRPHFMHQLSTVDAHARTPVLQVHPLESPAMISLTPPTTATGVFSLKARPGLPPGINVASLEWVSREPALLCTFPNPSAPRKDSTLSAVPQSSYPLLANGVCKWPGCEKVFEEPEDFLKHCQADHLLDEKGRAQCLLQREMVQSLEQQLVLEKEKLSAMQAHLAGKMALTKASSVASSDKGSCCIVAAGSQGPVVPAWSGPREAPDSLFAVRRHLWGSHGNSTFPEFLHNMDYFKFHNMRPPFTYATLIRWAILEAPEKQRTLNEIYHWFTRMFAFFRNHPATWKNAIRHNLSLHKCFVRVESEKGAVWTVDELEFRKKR
UniProt Q00987: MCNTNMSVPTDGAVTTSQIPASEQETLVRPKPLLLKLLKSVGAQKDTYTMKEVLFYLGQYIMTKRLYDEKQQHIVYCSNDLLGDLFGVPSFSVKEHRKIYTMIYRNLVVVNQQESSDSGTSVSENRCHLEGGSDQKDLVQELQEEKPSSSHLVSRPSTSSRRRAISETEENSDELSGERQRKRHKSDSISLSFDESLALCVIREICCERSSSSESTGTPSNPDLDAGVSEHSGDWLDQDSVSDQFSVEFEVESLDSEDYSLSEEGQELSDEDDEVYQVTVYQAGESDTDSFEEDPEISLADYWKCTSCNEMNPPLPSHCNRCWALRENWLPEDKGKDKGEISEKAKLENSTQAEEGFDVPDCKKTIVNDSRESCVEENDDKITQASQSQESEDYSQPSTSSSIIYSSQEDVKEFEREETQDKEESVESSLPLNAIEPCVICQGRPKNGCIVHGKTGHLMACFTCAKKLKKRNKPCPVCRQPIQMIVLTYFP

No constants are given. Whether binding was seen depends on the method and setting. Binding seen in cells or lysates may run through a third protein. Some results given as binding are weak or reduced against the parent protein; the word gives no strength.

The target of assay [1] is Myc-tagged FOXP3 (forkhead box P3) (human) (UniProt Q9BZS1). Briefly: co-IP; HEK293T cells co-transfected with Myc-FOXP3 and Flag-MDM2, harvested after 48 h; reciprocal IP with anti-Myc or anti-Flag antibodies; RIPA buffer (50 mM Tris-HCl pH 7.5, 135 mM NaCl, 0.5% sodium deoxycholate, 10% glycerol, 1 mM EDTA, 0.5% NP-40), 4°C, protein A/G Plus-agarose, six washes; Western blot.

In assay [2] the target is FOXP3 (forkhead box P3), endogenous in human Treg cells (human (endogenous in iTreg cells)) (UniProt Q9BZS1). The assay is described as follows: co-IP; endogenous IP from human iTreg cell lysate with anti-MDM2 or anti-FOXP3 antibodies; RIPA buffer, 4°C, protein A/G Plus-agarose, six washes; Western blot. A general note: Immunoblotting shows a protein as a band on a membrane.

For “Flag-tagged MDM2 (mouse double minute 2 homolog), wild type (from UniProt Q00987 1-491)”, the binding result in assay [1] was “binds”.
For “MDM2 (mouse double minute 2 homolog), endogenous in human Treg cells (from UniProt Q00987 1-491)”, the binding entry in assay [2] is listed as “binds”.
